Experimental data from patent publication US20230174526A1, “BENZOTHIAZOLYL BIARYL COMPOUND, AND PREPARATION METHOD AND USE” (SHANGHAI RINGENE BIOPHARMA CO., LTD., priority 2020, published 2023).
Some entries share one result that the patent states for a list of compounds.

Test system: transplanted tumor of MiaPaca-2, NCI-H358 tumor cells
Experiment: Growth inhibition of transplanted tumor in nude mice
Format: in vivo
Settings: tumor model not specified
Experimental: The tumor tissues in the peak growth period were cut into 1.5 mm^3 and inoculated into the right axillary subcutis of nude mice under aseptic conditions. The subcutaneous transplanted tumors of nude mice were measured by vernier calipers for the diameter of the transplanted tumors, and the animals were randomly grouped when the average volume of the tumors reached about 130 mm^3.The example compound (injection water containing 1% Tween 80 was prepared to the desired concentration and then left to be used) was administered orally at the given dose daily for three weeks, and the solvent control group was given an equal amount of solvent. The transplanted tumor diameter was measured twice a week throughout the experiment, and the mice were weighed at the same time.The tumor volume (TV) was calculated by the formula: TV = ½×a×b^2, where a and b are the length and width, respectively.

With `C=CC(=O)N1C[C@@H]2C(=O)N(C)c3cnc4c(F)c(-c5ccc(F)c6sc(N)nc56)c(Cl)cc4c3N2C[C@H]1C` (single isomer, unassigned) [Example 17-1] the tumor inhibition rate (10 mg/kg orally once daily for 21 days) was “greater than 60%” and the tumor inhibition rate (30 mg/kg orally once daily for 21 days) was “greater than 60%”.
